Reference: publication PMC4632068
These are yes or no findings as the source states them, for the method shown. Binding seen in cells or lysates may run through a third protein. Here binding means that the protein was enriched with, or labelled near, the bait; the list need not be complete. Sequences can lack the tags named with a protein.

B1: Nab6 (protein, UniProt Q03735 1-1134)
chain: MSNSNSKKPVANYAYRQQQDYNGMNAMVGNPMMYHPVDFVNGAGQYGPSQHPAYYTNSPLPNIPPTPFDTAYGASLFPSHLLMGSPFVSSPNMQSGYNSARSSNLKRKAYSRPVSNHNGYNGNSNSNQNNTNNGMVTPSNYYRMGRNSFSRNNNSTRNVTHNNNKGCDTRNNSGRRTFARNNIFDDILPEMLLQRPFCINYKVLPTGDDAYRTRSLLIENVDHSIDLHSIVKNFVKSNTLESAYLIEGGKSDDSKDVETKNLSILISFLTKGDCLNFYNNILQRLSEFKTFLKSEALNLKFVCLNYDPKCLPTFIESEALTENAEEADITNGSTMISASLHHNIANKDATRSIIIEFKSPVEKSDLFKKKLQFLDRSKNKRYILESIDLVNTDVPSNQFPENYAVLTFLNISMAIEVLDYLKKYSKNLGISKCFYVSLAPLVVSSARSSVANIYEGKTSTHRLSVPSVTAGNNNDSNNNGNNNKSNMSGITTLNNNSSIGVSVYGHSNMSLTSLSSSVSLNEEIDMLATKLQGVELDGTYLEINYRDYQTPTIEEHSTHLSNVKISKTTENSRQFSQDIPSPLPLNEHMFMNDSNQSNGAIIPQQLIATPSPVSPNLQMNQRVLPNPITQSLEQNFNVSAKVASSMGSDIGNRTIYIGNINPRSKAEDICNVVRGGILQSIKYIPEKKICFVTFIEAPSAVQFYANSFIDPIVLHGNMLRVGWGHYSGPLPKLISLAVTIGASRNVYVSLPEFAFKEKFIHDPQYKKLHETLSLPDAEQLREDFSTYGDIEQINYLSDSHCCWINFMNISSAISLVEEMNKESTVQNESGEVTLKRATEEKFGGRYKGLLINYGKDRCGNINKNLIAGKNSRFYKKVKRPSYNIRLSKLEEKRRQNEIDEKEKAFDKPLNLESLGISLDAHKDNGGGETGTANNTGHENESELEAENENGNETGSFGGLGLAVASSDVKRATSDETDYEDIFNKSSGSSDSSSDVEVIMHSPSDPEYALKSQTLRSSSQTVINSKRPVKIEDEEEAVGMSQLNYRSSLRQAPPRAPSTLSYNHSKNNETPMQDIFTNGETANNRKKKRGSFARHRTIPGSDVMAQYLAQVQHSTFMYAANILGASAEDNTHPDE
B2: Hrr25 (protein, UniProt P29295 1-494)
chain: MDLRVGRKFRIGRKIGSGSFGDIYHGTNLISGEEVAIKLESIRSRHPQLDYESRVYRYLSGGVGIPFIRWFGREGEYNAMVIDLLGPSLEDLFNYCHRRFSFKTVIMLALQMFCRIQYIHGRSFIHRDIKPDNFLMGVGRRGSTVHVIDFGLSKKYRDFNTHRHIPYRENKSLTGTARYASVNTHLGIEQSRRDDLESLGYVLIYFCKGSLPWQGLKATTKKQKYDRIMEKKLNVSVETLCSGLPLEFQEYMAYCKNLKFDEKPDYLFLARLFKDLSIKLEYHNDHLFDWTMLRYTKAMVEKQRDLLIEKGDLNANSNAASASNSTDNKSETFNKIKLLAMKKFPTHFHYYKNEDKHNPSPEEIKQQTILNNNAASSLPEELLNALDKGMENLRQQQPQQQVQSSQPQPQPQQLQQQPNGQRPNYYPEPLLQQQQRDSQEQQQQVPMATTRATQYPPQINSNNFNTNQASVPPQMRSNPQQPPQDKPAGQSIWL
B3: Puf3 (protein, UniProt Q07807 1-879)
chain: MEMNMDMDMDMELASIVSSLSALSHSNNNGGQAAAAGIVNGGAAGSQQIGGFRRSSFTTANEVDSEILLLHGSSESSPIFKKTALSVGTAPPFSTNSKKFFGNGGNYYQYRSTDTASLSSASYNNYHTHHTAANLGKNNKVNHLLGQYSASIAGPVYYNGNDNNNSGGEGFFEKFGKSLIDGTRELESQDRPDAVNTQSQFISKSVSNASLDTQNTFEQNVESDKNFNKLNRNTTNSGSLYHSSSNSGSSASLESENAHYPKRNIWNVANTPVFRPSNNPAAVGATNVALPNQQDGPANNNFPPYMNGFPPNQFHQGPHYQNFPNYLIGSPSNFISQMISVQIPANEDTEDSNGKKKKKANRPSSVSSPSSPPNNSPFPFAYPNPMMFMPPPPLSAPQQQQQQQQQQQQEDQQQQQQQENPYIYYPTPNPIPVKMPKDEKTFKKRNNKNHPANNSNNANKQANPYLENSIPTKNTSKKNASSKSNESTANNHKSHSHSHPHSQSLQQQQQTYHRSPLLEQLRNSSSDKNSNSNMSLKDIFGHSLEFCKDQHGSRFIQRELATSPASEKEVIFNEIRDDAIELSNDVFGNYVIQKFFEFGSKIQKNTLVDQFKGNMKQLSLQMYACRVIQKALEYIDSNQRIELVLELSDSVLQMIKDQNGNHVIQKAIETIPIEKLPFILSSLTGHIYHLSTHSYGCRVIQRLLEFGSSEDQESILNELKDFIPYLIQDQYGNYVIQYVLQQDQFTNKEMVDIKQEIIETVANNVVEYSKHKFASNVVEKSILYGSKNQKDLIISKILPRDKNHALNLEDDSPMILMIKDQFANYVIQKLVNVSEGEGKKLIVIAIRAYLDKLNKSNSLGNRHLASVEKLAALVENAEV
B4: Lsm12 (protein, UniProt P38828 1-187)
chain: MSVSLEQTLGFRIKVTNVLDVVTEGRLYSFNSSNNTLTIQTTKKNQSPQNFKVIKCTFIKHLEVIGDKPSFNSFKKQQIKPSYVNVERVEKLLKESVIASKKKELLRGKGVSAEGQFIFDQIFKTIGDTKWVAKDIIILDDVKVQPPYKVEDIKVLHEGSNQSITLIQRIVERSWEQLEQDDGRKGG
B5: Pbp4 (protein, UniProt Q07362 1-185)
chain: MTTTSTTSVDGRTSSTLKATLSASGPNSNGPTPAVLPQKPKLTGWAQAAAKALPRQQQQQQQARKDDSVAVQPANTKTKTIASTAPPANIKGSSTANGSSTNKKFKRANKQPYNREEVRSYMHKLFQSYTAGEKSHSMKTYKQVLSETASGRVSTATDWGTVSSSKNKNKKYGCLSDIAKVLRNQ
B6: Sro9 (protein, UniProt P25567 1-434)
chain: MSAETAAANTATAPVPEVQEQESSKSKQVNLTPAPLPTSSPWKLAPTEIPVSTISIEDLDATRKKKNRTPTPKSSTATKWVPIKASITVSGTKRSGSKNGASNGNSNKSKNNKTAASSTSSSNANRKKKHHQHNAKKQQQMKKDGFESAVGEEDSKDATSQENGQSTQQQQPPHHRNHHHSHHHNSNGPQRRKFHNSNNAGMPQNQGFPPQFKPYQGRNARNNNNNRSKYHNHFHHNQQHPQQPMVKLQQQFYPVQPVLMAINNIARQIEYYFSEENLTVDNYLRSKLSKDGFAPLSLISKFYRVVNMSFGGDTNLILAALREIVANEAATVNVAEGTLAAKEGDNVTGEAKEPSPLDKYFVRSKSWSNWLPETFETEINIEKELVGDALDQFMISLPPVPQQEEESSTELASQEQETKEDSAPVAAGESESSL
B7: Nam7 (protein, UniProt P30771 1-971)
chain: MVGSGSHTPYDISNSPSDVNVQPATQLNSTLVEDDDVDNQLFEEAQVTETGFRSPSASDNSCAYCGIDSAKCVIKCNSCKKWFCNTKNGTSSSHIVNHLVLSHHNVVSLHPDSDLGDTVLECYNCGRKNVFLLGFVSAKSEAVVVLLCRIPCAQTKNANWDTDQWQPLIEDRQLLSWVAEQPTEEEKLKARLITPSQISKLEAKWRSNKDATINDIDAPEEQEAIPPLLLRYQDAYEYQRSYGPLIKLEADYDKQLKESQALEHISVSWSLALNNRHLASFTLSTFESNELKVAIGDEMILWYSGMQHPDWEGRGYIVRLPNSFQDTFTLELKPSKTPPPTHLTTGFTAEFIWKGTSYDRMQDALKKFAIDKKSISGYLYYKILGHQVVDISFDVPLPKEFSIPNFAQLNSSQSNAVSHVLQRPLSLIQGPPGTGKTVTSATIVYHLSKIHKDRILVCAPSNVAVDHLAAKLRDLGLKVVRLTAKSREDVESSVSNLALHNLVGRGAKGELKNLLKLKDEVGELSASDTKRFVKLVRKTEAEILNKADVVCCTCVGAGDKRLDTKFRTVLIDESTQASEPECLIPIVKGAKQVILVGDHQQLGPVILERKAADAGLKQSLFERLISLGHVPIRLEVQYRMNPYLSEFPSNMFYEGSLQNGVTIEQRTVPNSKFPWPIRGIPMMFWANYGREEISANGTSFLNRIEAMNCERIITKLFRDGVKPEQIGVITPYEGQRAYILQYMQMNGSLDKDLYIKVEVASVDAFQGREKDYIILSCVRANEQQAIGFLRDPRRLNVGLTRAKYGLVILGNPRSLARNTLWNHLLIHFREKGCLVEGTLDNLQLCTVQLVRPQPRKTERPMNAQFNVESEMGDFPKFQDFDAQSMVSFSGQIGDFGNAFVDNTELSSYINNEYWNFENFKSAFSQKQNRNEIDDRNLYQEEASHLNSNFARELQREEQKHELSKDFSNLGI

Biological target: T1, Dhh1−GFP (S. cerevisiae (endogenous in BY4741-derived yeast)) (UniProt P39517)
T1 sequence: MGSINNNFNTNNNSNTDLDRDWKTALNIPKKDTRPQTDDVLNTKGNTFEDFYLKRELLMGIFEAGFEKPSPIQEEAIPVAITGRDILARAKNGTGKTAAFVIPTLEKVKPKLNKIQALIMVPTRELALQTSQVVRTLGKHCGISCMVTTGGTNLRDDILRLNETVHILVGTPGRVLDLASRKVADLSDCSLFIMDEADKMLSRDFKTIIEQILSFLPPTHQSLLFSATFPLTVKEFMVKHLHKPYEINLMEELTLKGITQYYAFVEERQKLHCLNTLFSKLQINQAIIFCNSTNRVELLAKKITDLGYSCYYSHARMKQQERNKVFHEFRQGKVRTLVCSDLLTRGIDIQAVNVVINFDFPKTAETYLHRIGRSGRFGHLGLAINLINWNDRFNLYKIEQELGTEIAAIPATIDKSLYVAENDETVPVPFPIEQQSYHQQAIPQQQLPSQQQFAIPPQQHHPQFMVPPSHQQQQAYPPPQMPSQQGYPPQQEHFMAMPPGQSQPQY
Test: affinity purification with mass spectrometry; Dhh1−GFP captured by anti-GFP IgG cross-linked to Protein-G Dynabeads from cleared lysate of cryo-ground yeast; RB buffer (30 mM K-Hepes pH 7.4, 150 mM KCl, 2 mM MgCl2, 0.2% NP-40, 0.1% Tween-20, 1 mM DTT, RNase inhibitor), 30 min at 4°; five purifications (two +glucose YPD, three 30 min −glucose YEP); hits filtered by SAINT against CRAPome controls

binding, binds:
B1
B2
B3
B4
B5
B6
B7
